The values that follow come from PMC8797263.

Results are given in words; binding and its absence hold for the method and conditions named. In cells and extracts the contact can be indirect. A result given as binding can be weak or reduced; the word gives no strength. Tags and fused reporters may be left off the sequences shown.

The target in this experiment is FLAG-OCLN-ΔN. As to the kind of experiment: co-IP; 293T cells co-expressing FLAG-OCLN (or OCLN-ΔN / OCLN-ΔC) and HA-PLIN2/BTN1a1/XOR; lysis in 20 mM HEPES, 150 mM NaCl, 1% NP40; FLAG magnetic beads overnight at 4°C, 4 washes; western blot with anti-HA. (In general: In western blotting, separated proteins are transferred to a membrane and probed.)

B1: HA-BTN1a1 (protein, UniProt Q62556 27-524)
chain: AAPFDVTAPQEPVLALVGSDAELTCGFSPNASSEYMELLWFRQTRSTAVLLYRDGQEQEGQQMTEYRGRATLATAGLLDGRATLLIRDVRVSDQGEYRCLFKDNDDFEEAAVYLKVAAVGSDPQISMTVQENGEMELECTSSGWYPEPQVQWRTGNREMLPSTSESKKHNEEGLFTVAVSMMIRDSSIKNMSCCIQNILLGQGKEVEISLPAPFVPRLTPWIVAVAIILLALGFLTIGSIFFTWKLYKERSSLRKKEFGSKERLLEELRCKKTVLHEVDVTLDPDTAHPHLFLYEDSKSVRLEDSRQILPDRPERFDSWPCVLGRETFTSGRHYWEVEVGDRTDWAIGVCRENVVKKGFDPMTPDNGFWAVELYGNGYWALTPLRTSLRLAGPPRRVGVFLDYDAGDISFYNMSNGSLIYTFPSISFSGPLRPFFCLWSCGKKPLTICSTANGPEKVTVIANVQDDIPLSPLGEGCTSGDKDTLHSKLIPFSPSQAAP
As to B1, the binding entry is recorded as “binds”.
